Data as given in the supplement of paper PMC3334620.
Over roughly 33,000 sequences, “E-score (-0.5 to 0.5)” has its median near -0.0014; the highest 2% begin near 0.25. The list shows a part of the results.

target: T1, Cad1 (UniProt P24813); experiment: PBM E-score (8-mer binding enrichment) (E-score (-0.5 to 0.5)); higher = stronger / more preferred TF binding; settings: protein concentration: 100 nM; construct: GST-full length
T1 sequence: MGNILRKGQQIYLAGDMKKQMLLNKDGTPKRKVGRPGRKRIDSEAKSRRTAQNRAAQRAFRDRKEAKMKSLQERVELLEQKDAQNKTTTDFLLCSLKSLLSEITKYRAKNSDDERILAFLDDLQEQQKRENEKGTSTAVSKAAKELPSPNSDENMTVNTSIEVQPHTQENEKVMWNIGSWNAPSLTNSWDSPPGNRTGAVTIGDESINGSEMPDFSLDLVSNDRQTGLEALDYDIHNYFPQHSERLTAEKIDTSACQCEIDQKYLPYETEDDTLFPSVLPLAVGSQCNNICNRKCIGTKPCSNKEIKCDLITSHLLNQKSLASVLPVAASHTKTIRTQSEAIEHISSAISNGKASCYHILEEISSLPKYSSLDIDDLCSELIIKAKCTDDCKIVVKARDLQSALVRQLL
Procedure, shortened: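 Masliner-normalised scans of fluorescent anti-GST signal were the basis for scoring. That signal came from GST-tagged yeast transcription factors applied at about 100-200 nM to double-stranded universal all-10-mer Agilent arrays on fresh or once-stripped slides. Each ungapped eight-base word, pooled with its reverse complement, received an E-score from the Universal PBM Analysis Suite.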

| Sequence | PBM E-score |
| --- | --- |
| ATGATTAC | 0.192 |
| GAGGAATC | -0.0897 |
| AATAACCA | 0.0929 |
| AATACAAC | 0.127 |
| CTTACCAC | -0.088 |
| TAGATATA | 0.137 |
| ACATTCAG | -0.115 |
| AGCCAGTA | -0.0119 |
| AAATAAAA | -0.0112 |
| AAACGAGT | 0.106 |
| AACGATGC | -0.0697 |
| CTCAATGC | -0.134 |
| AGTTTCAA | -0.00143 |
| ATGTTGAA | 0.0648 |
| CCGTGCCC | -0.127 |
| AGCTCCTC | -0.164 |
| TCCACGAA | 0.176 |
| GACATTAA | 0.124 |
| CATGAGGA | -0.0479 |
| CCCCACGA | -0.14 |
| CGTGAAAC | 0.0381 |
| ACAATGAT | 0.0901 |
| GTGAGGAA | -0.0445 |
| ACGCAAAT | 0.00101 |
| CGACTTGC | -0.0213 |

| Sequence | PBM E-score |
| --- | --- |
| TACAGCTA | -0.152 |
| CTTCCGGA | 0.0325 |
| GTTCAATA | 0.148 |
| AAGATCCA | -0.089 |
| CTTTCTTA | 0.0123 |
| TATCCCCA | -0.00848 |
| GAATAGTC | 0.104 |
| AGTACGCG | 0.26 |
| GACTCGGC | -0.123 |
| GCGTAATA | 0.142 |
| GCTATACA | 0.181 |
| ACCATAGT | 0.043 |
| GTGTCTTA | -0.112 |
| ATGGGAAA | -0.172 |
| CACTCCAA | 0.0548 |
| CAAAAGTC | 0.0412 |
| ATAGCTCC | -0.234 |
| GTAAACAA | 0.186 |
| CGCCATCC | -0.144 |
| AAAGAAAA | 0.149 |
| CGTCTCAA | 0.0271 |
| GTAATAGA | 0.12 |
| ATTCTAAC | -0.0187 |
| GCTTACGA | 0.258 |
| ACTACGCC | -0.0775 |

In another format: entries from further up.
GAATAGTC
  PBM E-score: 0.104
GACTCGGC
  PBM E-score: -0.123
GTGTCTTA
  PBM E-score: -0.112

Going on with the list.

| Sequence | PBM E-score |
| --- | --- |
| CAATAGCA | -0.111 |
| ATAACATC | 0.16 |
| AATTTACA | 0.0636 |
| AGTATACG | 0.0264 |
| CCCCTTAC | -0.128 |
| TGCGCCAA | 0.0579 |
| CGGGGTCA | -0.12 |
| CCTGGGAC | -0.266 |
| TGGCGCCA | 0.198 |
| ACTGGGTC | -0.332 |
| GGAAAGAA | -0.177 |
| ATGGTATA | 0.112 |
| CCCTCCCA | 0.00647 |
| AACAAGTA | -0.135 |
| AACCTCTG | -0.105 |
| ATCAAACC | 0.18 |
| GCATAGCC | -0.256 |
| AGACTACC | -0.0789 |
| AAGCGGTC | 0.0402 |
| ATCCAGTC | -0.0389 |
| GCGGTACA | -0.026 |
| ACGTTCAG | -0.172 |
| AGCACACT | -0.0625 |
| AACGAGTA | 0.0634 |
| CGTGGATA | 0.0699 |

| Sequence | PBM E-score |
| --- | --- |
| ATCAGATC | -0.12 |
| CAATTGTA | 0.202 |
| GATGGTAC | 0.0265 |
| ACAACCCC | -0.155 |
| AGGGACTG | -0.0624 |
| ATACGCGG | -0.0649 |
| ATAGCCCG | -0.245 |
| ACGATTAG | 0.225 |
| GTGTTTAA | 0.233 |
| GCAAAAGA | -0.0108 |
| CTGTTGCC | -0.123 |
| GACTTTTA | -0.17 |
| ATAGACCG | -0.0498 |
| CTAACGAA | 0.153 |
| GGGTGAAC | -0.0927 |
| CTGTTCGA | -0.08 |
| AAGTGATT | 0.166 |
| ATTCCTCC | -0.145 |
| CTGCCGTC | -0.121 |
| GAAATCCA | 0.164 |
| GGTTAATA | 0.119 |
| CAGCTGGG | -0.113 |
| CTTCGCTC | 0.0256 |
| CTCCGCAC | 0.0372 |
| GCCCTCAC | -0.163 |

Rewritten with each value named: part of the list above
ATAGCTCC
  PBM E-score = -0.234
ATCAAACC
  PBM E-score = 0.18
CAATTGTA
  PBM E-score = 0.202

(next part)

| Sequence | PBM E-score |
| --- | --- |
| TAATCAGA | 0.233 |
| CATTTCAC | -0.0255 |
| CATCTGCC | -0.0636 |
| CGCTCTCC | -0.172 |
| ACATGAAT | -0.0876 |
| CCTGGGGC | -0.343 |
| AACTGCTC | 0.0289 |
| AGATTCCC | 0.0124 |
| ACGATGGG | -0.16 |
| CTATAACA | -0.121 |
| CCCCTCCA | -0.106 |
| AGGCTTAT | 0.00167 |
| ATAACGGA | 0.155 |
| ATAGCCTA | -0.029 |
| GTCTTAGA | -0.0522 |
| CGTGCAAC | 0.0988 |
| AATACAGG | 0.207 |
| GCTGCTAA | 0.0581 |
| GGGTTACC | -0.237 |
| AACAGATC | 0.16 |
| GTTGGCTA | -0.0101 |
| ACGCGCCC | 0.0144 |
| CCATTATC | 0.0253 |
| CCAGTCCG | -0.184 |
| AAAGGGGG | -0.344 |

Reprinted from the results shown (three entries):

| Sequence | PBM E-score |
| --- | --- |
| CGTGCAAC | 0.0988 |
| AATACAGG | 0.207 |
| GCTGCTAA | 0.0581 |

(next part)

| Sequence | PBM E-score |
| --- | --- |
| TTGACAAA | 0.294 |
| ACCTGATA | 0.147 |
| CCCGTTCA | -0.183 |
| CCAACAGG | -0.268 |
| CTATATAC | 0.27 |
| ACGATCCC | -0.208 |
| CCAAGCGG | -0.224 |
| GGTACTAA | 0.0433 |
| ACAATCGT | 0.00707 |
| GTGGCTAA | 0.146 |
| ACACGAGT | 0.149 |
| AGAGCAAG | 0.13 |
| CGGAATTA | 0.203 |
| GCGGTATA | 0.104 |
| CGTCCATA | 0.112 |
| GGCCACCA | 0.0862 |
| AGATCACA | -0.0498 |
| AAGGCTAT | -0.152 |
| AGGCAGAA | -0.106 |
| CATGTGGC | 0.105 |
| CCCGAAAG | -0.0143 |
| ATTGCAAG | -0.00256 |
| GGCGCGCC | 0.172 |
| ACTACAAT | 0.173 |
| AGAGATCC | -0.104 |

| Sequence | PBM E-score |
| --- | --- |
| CTAGCCGC | 0.0492 |
| CCACTTAC | 0.0959 |
| AATCAAAC | 0.215 |
| CCCCCCGG | -0.428 |
| GGTTCATA | 0.0159 |
| ATAACACG | -0.0288 |
| ATTTCCCA | 0.156 |
| AGGCATCC | -0.195 |
| GGAAGTTA | 0.0734 |
| CGATCTAC | -0.0444 |
| GTTGCTAA | 0.223 |
| CTGTGAAG | -0.0744 |
| CGAACAGC | -0.0486 |
| CCTGTTAC | -0.139 |
| CCCTGTGA | -0.161 |
| GAATGCAA | 0.0943 |
| ACCGGTAC | -0.166 |
| AGACCAAG | -0.0534 |
| AGATAGGG | -0.206 |
| CGATAAGC | 0.055 |
| TGGAGGAA | -0.222 |
| AAAAGTCC | 0.0399 |
